In US8153589B2, “JNK3 as a target for the treatment of angiogenesis-related diseases” (The University of North Carolina at Chapel Hill, priority 2009, dated 2012):
For at least one compound, name, drawing or mass did not settle the structure.

System: BAECs
Experiment: Boyden chamber migration assay
Format: cell-based, bovine
Settings: SP600125, no SDF-1α
Procedure: Boyden chamber assays were performed as previously described (40, 41) using a 48-well chamber apparatus (NeuroProbe, Cabin John, Md.). The lower chambers of the apparatus were filled with DMEM with or without SDF-1alpha and then covered with the collagen-coated filter and the upper chambers. Cells pretreated with or without the indicated inhibitors were then added to the upper chambers. After incubating for 6 h at 37° C., cells present on the lower surface were fixed, stained and identified with the 40× objective lens on a Nikon Eclipse TS 100 inverted microscope.
To determine whether eNOS activation is required for SDF-1α-mediated endothelial cell migration, we performed scratch-wound healing and Boyden chamber migration assays in the presence of the NOS-specific inhibitor L-NMMA (19). Confluent BAECs were pretreated for one hour with 1 mM or 5 mM L-NMMA or vehicle prior to each assay. […] Endothelial cells were transfected with 1 of 3 different bovine eNOS-specific siRNAs, or mixture of all three, and 72 hours later cell lysates were examined by western blot analysis for levels of eNOS protein.

Oc1c2ccccc2c2c3c(cccc13)N=N2 [SP600125]
cell migration in the absence of SDF-1α: also inhibited
